Results from PubChem BioAssay AID504834 (National Center for Advancing Translational Sciences (NCATS), 2011).
Out of some 320,000 compounds screened, about 22,000 (6.9%) were called active. Inconclusive results, whose numbers are uncertain, are shown with a selection of clear calls. Calls come from the whole dose curve; as a rule, active = well fitted inhibition curve with a large enough effect; inconclusive = small, poorly fitted or top-dose-only effect, or another doubt; inactive = no such curve, though single readings can be large or run the other way. Potencies of inconclusive entries are doubtful fits and often do not repeat.

test: Primary qHTS for delayed death inhibitors of the malarial parasite plastid, 96 hour incubation; conditions: P. falciparum luciferase reporter growth; series mostly up to 28.7 µM; activity change, negative = inhibition: at the top concentration
Procedure, shortened: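 96 h incubation, 37 C, 5% CO2, of luciferase-reporter P. falciparum-infected RBCs (2% hematocrit, 0.05% parasitemia final) with test compounds; endpoint luminescence.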
% is set by controls: 0 for no effect and ±100 for the full control effect; potency is the fitted concentration of half-maximal effect.

SMILES | activity change, negative = inhibition | Potency
COc1ccccc1N1CC(C(=O)Nc2cc(C(F)(F)F)ccc2N2CCCC2)CC1=O (stereo unspecified) | inactive: -5.09% | –
CNc1nc(NCc2ccccc2)c2ccccc2n1 | – | inconclusive: 18.5 µM [inhibitor, single point]
CCOC(=O)c1c(C)[nH]c(C(=O)Cn2nnc(-c3ccccc3)n2)c1C | – | inconclusive: 5.22 µM [inhibitor, partial curve, poor fit]
COc1ccc(NC(=O)C2CCN(S(=O)(=O)c3ccc4[nH]c(=O)oc4c3)CC2)c(OC)c1 | – | inconclusive: 18.5 µM [inhibitor, single point]
Cc1ccc(S(=O)(=O)N2CCCCC2)cc1NC(=O)C1CC(=O)N(c2ccc3c(c2)OCCO3)C1 (stereo unspecified) | – | inconclusive: 11.7 µM [inhibitor, partial curve, poor fit]
O=C(NCc1ccccc1F)C1CCCN(c2cnccn2)C1 (stereo unspecified) | inactive: 2.58% | –
CC(=O)Nc1cccc(NC(=O)c2ccco2)c1 | – | inconclusive: 0.0415 µM [inhibitor, full curve, poor fit]
C/C(=N\N=C\c1ccccc1F)c1nnn(-c2nonc2N)c1C | inactive: 65.4% | –
CCC(COC)Oc1cc(NCc2ccccc2)c2ncn(C(C)C)c2c1 (stereo unspecified) | – | inconclusive: 1.31 µM [inhibitor, partial curve, poor fit]
Cc1nc2ccc(NC(=O)N(C(C)C)C(C)C)cc2s1 | inactive: 53.1% | –
N#Cc1cccc(C(=O)OCc2cccc(S(=O)(=O)N3CCOCC3)c2)c1 | inactive: 16.3% | –
CCCNC(=O)c1ccc2c(=O)c(O)c(-c3ccc(OC)cc3)[nH]c2c1 | – | inconclusive: 18.5 µM [inhibitor, single point]
CCOc1ccc(OCC(=O)Nc2ccc(N3CCCCC3)cc2)cc1 | – | inconclusive: 18.5 µM [inhibitor, single point]
Cc1ccccc1-c1ccc(C(=O)NCc2ccccc2)o1 | inactive: -9.89% | –
COCC(C)n1c(C)cc(C(=O)COC(=O)CCc2nc3ccccc3c(=O)[nH]2)c1C (stereo unspecified) | inactive: -18.9% | –
Fc1ccc(-n2cc(-c3ccccc3)c3c(N4CCOCC4)ncnc32)cc1 | – | inconclusive: 10.4 µM [inhibitor, single point]
O=C(COc1ccc2c(c1)CCC2)N1CCN(c2ccc(F)cc2)CC1 | inactive: -14.1% | –
O=C(c1ccc(Br)o1)N1CCN(Cc2ccccc2Cl)CC1 | – | inconclusive: 13.1 µM [inhibitor, single point]
CCN1CCCC1CNC(=O)c1cc(S(=O)(=O)N(C)C)ccc1Cl (stereo unspecified) | inactive: 28.1% | –
CCn1c(SCC(=O)N2CCCc3ccccc32)nnc1-c1ccco1 | inactive: -5.69% | –
Cc1nc(SCC(=O)c2ccccc2)c(C#N)c(-c2ccco2)c1C(=O)NCc1ccco1 | – | inconclusive: 18.5 µM [inhibitor, single point]
COC(=O)c1ccc(-n2c(C)cc(-c3csc(NC(=O)c4ccc(S(=O)(=O)N(C)C)cc4)n3)c2C)cc1 | – | inconclusive: 4.15 µM [inhibitor, partial curve, poor fit]
O=C(O)c1cc([N+](=O)[O-])ccc1C(=O)Nc1ccccc1 | inactive: 42.8% | –
COc1ccc(CNc2cc(C)nc3ncnn23)c(OC)c1 | – | inconclusive: 10.4 µM [inhibitor, single point]

Part of the list above in order of molecular weight, largest number first:
SMILES | activity change, negative = inhibition | Potency
COC(=O)c1ccc(-n2c(C)cc(-c3csc(NC(=O)c4ccc(S(=O)(=O)N(C)C)cc4)n3)c2C)cc1 | – | inconclusive: 4.15 µM [inhibitor, partial curve, poor fit]
CCOc1ccc(OCC(=O)Nc2ccc(N3CCCCC3)cc2)cc1 | – | inconclusive: 18.5 µM [inhibitor, single point]
CCOC(=O)c1c(C)[nH]c(C(=O)Cn2nnc(-c3ccccc3)n2)c1C | – | inconclusive: 5.22 µM [inhibitor, partial curve, poor fit]
Cc1nc2ccc(NC(=O)N(C(C)C)C(C)C)cc2s1 | inactive: 53.1% | –

Later entries:

SMILES | activity change, negative = inhibition | Potency
COc1ccccc1C(=O)Nc1nnc(S(=O)(=O)N2CCCCCC2)s1 | – | inconclusive: 0.522 µM [inhibitor, partial curve, poor fit]
CCn1c(SCC(=O)N/N=C/c2c[nH]c3ccccc23)nnc1-c1ccc(C(C)(C)C)cc1 | – | active: 10.4 µM
CCN(CC)c1ccc(/C=N/n2nnnc2N)c(O)c1 | inactive: -9.93% | –
O=C(Nc1ccncc1)C1CCN(S(=O)(=O)c2c(Cl)cccc2Cl)CC1 | – | inconclusive: 18.5 µM [inhibitor, single point]
O=C(COc1ccc(S(=O)(=O)NC2CCCCC2)cc1)N1CCN(c2ccc(F)cc2)CC1 | – | inconclusive: 18.5 µM [inhibitor, single point]
FC(F)(F)c1ccc(Oc2ccc3ccccc3c2Br)nc1 | – | active: 2.94 µM
COCCCN(C(=O)Cn1ncc2c(=O)oc3ccc(C)cc3c21)C(C)c1ccncc1 (stereo unspecified) | – | inconclusive: 10.4 µM [inhibitor, single point]
Cc1ccccc1OCC(=O)NNC(=O)CCN1C(=O)c2ccccc2C1=O | – | inconclusive: 11.7 µM [inhibitor, single point]
CCOC(=O)c1ccccc1NC(=O)CSc1nnnn1C | – | inconclusive: 0.415 µM [inhibitor, full curve, poor fit]
C=CCN(c1ccc(C(=O)Nc2ccc3c(c2)n(C)c(=O)n3C)cc1)S(C)(=O)=O | – | inconclusive: 0.0294 µM [inhibitor, full curve, poor fit]
O=c1cc(CSc2ccccc2)[nH]c(=S)[nH]1 | inactive: -4.93% | –
Cc1sc2nc(C3CC3)nc(SCC(=O)N3CCc4ccccc4C3)c2c1C | – | inconclusive: 5.22 µM [inhibitor, partial curve, poor fit]
CN(C)S(=O)(=O)c1cccc(NC(=O)c2ccc(Sc3nncn3C)c([N+](=O)[O-])c2)c1 | – | inconclusive: 13.1 µM [inhibitor, single point]
C=CC(=O)N1C/C=C\C(c2ccc(OC)cc2)N(Cc2ccc(F)cc2)C(=O)C1 (stereo unspecified) | inactive: 25.7% | –
CCOC(=O)N1CCN(C(=O)c2ccc(Cn3c(=S)[nH]c4cc5c(cc4c3=O)OCO5)cc2)CC1 | – | inconclusive: 18.5 µM [inhibitor, single point]
O=C(O)C1CCCN(S(=O)(=O)c2ccc(Br)cc2)C1 (stereo unspecified) | – | inconclusive: 5.86 µM [inhibitor, partial curve]
Cn1nc(C(=O)N2CCN(c3ccccc3)CC2)c2c1-c1ccccc1S(=O)(=O)C2 | inactive: 16.4% | –
CC(C)(C)OC(=O)N1CCCN(C(=O)Nc2ccccc2)CC1 | inactive: 47.6% | –
CCOC(=O)CNC(=O)CNC(=O)c1nn(-c2ccc(OC)c(Cl)c2)c(=O)c2ccccc12 | inactive: -25.8% | –
CCOc1ccc(-n2c(-c3ccc(OC)cc3)c[n+]3c2CCCCC3)cc1 | – | inconclusive: 0.329 µM [inhibitor, full curve, poor fit]
CC(Oc1ccc(Br)cc1)C(=O)NC1CCN(Cc2ccccc2)CC1 (stereo unspecified) | – | inconclusive: 18.5 µM [inhibitor, single point]
CC(C)CCOP(=O)(c1ccc(N(C)C)cc1)C(O)c1ccc(C(C)C)cc1 (stereo unspecified) | – | inconclusive: 8.28 µM [inhibitor, partial curve]
O=C(NC1CCCC1)c1ccc(COc2ccccc2Br)o1 | – | inconclusive: 0.0026 µM [inhibitor, full curve, poor fit]
Cc1cc(Br)ccc1NC(=O)CN(C)C(=O)CSCc1ccccc1 | inactive: 1.19% | –

SMILES | activity change, negative = inhibition | Potency
C[n+]1ccccc1/C=C/c1cc(Br)ccc1O | – | inconclusive: 10.4 µM [inhibitor, single point]
O=C(c1ccc(C(F)(F)F)cc1)c1c[nH]c(C(=O)NCCCn2ccnc2)c1 | – | inconclusive: 0.294 µM [inhibitor, full curve, poor fit]
CCOC(=O)N1CCN(CCC(=O)Nc2cccc(C)c2)CC1 | – | inconclusive: 4.15 µM [inhibitor, single point]
CCNC(=O)Nc1ccccc1C(=O)OC | – | inconclusive: 0.928 µM [inhibitor, full curve]
CC(NC(=O)CCc1nnc(-c2ccc(-c3ccccc3)cc2)o1)c1nccs1 (stereo unspecified) | inactive: 14.3% | –
CCN(CC)S(=O)(=O)c1ccc(C(=O)N2CCN(C3=NS(=O)(=O)c4ccccc43)CC2)cc1 | – | inconclusive: 18.5 µM [inhibitor, partial curve, poor fit]
Cc1cc(NC(=O)CCC(=O)N(c2ccccc2)C(C(=O)NC2CCCC2)c2ccccc2C)no1 (stereo unspecified) | – | inconclusive: 10.4 µM [inhibitor, partial curve, poor fit]
CC(c1ccco1)N(C(=O)Nc1ccc(Cl)cc1)c1ccccn1 (stereo unspecified) | inactive: -4.12% | –
COC(=O)[C@@H]1[C@@H](C(=O)OC)C2(c3ccccc3-c3ccccc32)N(c2ccc(Cl)cc2)N1C#N | – | inconclusive: 10.4 µM [inhibitor, single point]
Cc1ccc2nc(C)/c(=N\O)c(C)nc2c1 | inactive: 85.7% | –
CCOC(=O)C1CCCN(C(=O)c2ccc3c(c2)N(Cc2ccccc2)C(=O)c2ccccc2S3=O)C1 (stereo unspecified) | inactive: -10.1% | –
NC(=O)c1cccnc1Nc1ccccc1F | inactive: 103% | –
O=C(C1CC1)N1CCN=C1SCc1cccc(F)c1 | – | inconclusive: 13.1 µM [inhibitor, single point]
CC(=O)N1c2ccc(S(=O)(=O)N3CCC(C(=O)NC(C)c4ccccc4)CC3)cc2CC1C (stereo unspecified) | – | inconclusive: 7.38 µM [inhibitor, partial curve]
Cc1ccc(S(=O)(=O)N2CCCCC2)cc1NC(=O)CCc1nc2ccccc2c(=O)[nH]1 | – | inconclusive: 8.28 µM [inhibitor, partial curve]
Cc1ccccc1OCC(=O)N/N=C/c1ccc(N2CCOCC2)o1 | inactive: -18.7% | –
Cc1cnc(C)c(N2CCN(C(=O)C3CCC(=O)N(CCc4cccc(F)c4)C3)CC2)n1 (stereo unspecified) | – | active: 14.7 µM
Cc1cccc(N(C)c2ncnc3onc(-c4ccc(F)cc4)c23)c1C | – | inconclusive: 14.7 µM [inhibitor, partial curve, poor fit]
O=C(c1cc(-c2cccc(O)c2)on1)N1CCc2ccccc2C1 | – | inconclusive: 14.7 µM [inhibitor, partial curve, poor fit]
CC1CN(C(=O)/C(=C/c2ccco2)NC(=O)c2ccccc2)CC(C)O1 (stereo unspecified) | inactive: 7.34% | –
Cc1cc(NC(=O)CSc2nnc(C3CC3)n2Cc2ccccc2)no1 | inactive: -13.7% | –
Cc1ccc(-c2noc(-c3ccoc3C)n2)cc1 | inactive: 16.3% | –
N#C/C(=C/c1ccccc1[N+](=O)[O-])C(=O)NCc1ccco1 | – | inconclusive: 11.7 µM [inhibitor, single point]
